Reference: the supplement of paper PMC10849652
The other results are listed elsewhere or left out.

The chains behind the UniProt entries cited, without tags or fusion partners. Where a name states a change or a piece, a line headed by the entry shows the natural chain unless it says otherwise.
UniProt Q15014, whole entry, looked up: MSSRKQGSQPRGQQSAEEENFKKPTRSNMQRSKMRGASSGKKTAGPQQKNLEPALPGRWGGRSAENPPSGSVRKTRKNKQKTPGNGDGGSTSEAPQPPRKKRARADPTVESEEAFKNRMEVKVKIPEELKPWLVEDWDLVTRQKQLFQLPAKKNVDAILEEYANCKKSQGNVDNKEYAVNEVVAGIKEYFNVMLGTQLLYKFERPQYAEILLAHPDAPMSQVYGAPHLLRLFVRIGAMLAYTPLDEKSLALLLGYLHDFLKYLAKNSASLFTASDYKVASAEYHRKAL
UniProt Q96BX8: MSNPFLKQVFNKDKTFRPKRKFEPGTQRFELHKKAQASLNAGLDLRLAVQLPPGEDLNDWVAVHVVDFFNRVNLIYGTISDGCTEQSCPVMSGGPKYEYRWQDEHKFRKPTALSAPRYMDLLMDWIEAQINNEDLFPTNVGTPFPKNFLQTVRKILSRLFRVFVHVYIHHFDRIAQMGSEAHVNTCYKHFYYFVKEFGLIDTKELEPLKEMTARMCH
UniProt Q9NQG6: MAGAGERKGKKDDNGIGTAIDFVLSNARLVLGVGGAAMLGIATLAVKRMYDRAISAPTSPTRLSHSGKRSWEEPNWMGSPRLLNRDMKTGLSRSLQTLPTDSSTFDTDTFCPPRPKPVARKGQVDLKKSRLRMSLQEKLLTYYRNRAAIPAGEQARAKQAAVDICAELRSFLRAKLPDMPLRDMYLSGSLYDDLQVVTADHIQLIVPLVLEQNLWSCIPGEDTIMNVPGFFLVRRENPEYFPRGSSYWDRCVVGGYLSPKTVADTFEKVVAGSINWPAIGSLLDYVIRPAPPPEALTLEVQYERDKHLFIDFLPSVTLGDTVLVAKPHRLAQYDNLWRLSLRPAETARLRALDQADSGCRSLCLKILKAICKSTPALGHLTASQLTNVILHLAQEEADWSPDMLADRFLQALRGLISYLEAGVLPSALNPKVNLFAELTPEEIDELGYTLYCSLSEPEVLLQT
UniProt Q9UBU8, whole entry, looked up: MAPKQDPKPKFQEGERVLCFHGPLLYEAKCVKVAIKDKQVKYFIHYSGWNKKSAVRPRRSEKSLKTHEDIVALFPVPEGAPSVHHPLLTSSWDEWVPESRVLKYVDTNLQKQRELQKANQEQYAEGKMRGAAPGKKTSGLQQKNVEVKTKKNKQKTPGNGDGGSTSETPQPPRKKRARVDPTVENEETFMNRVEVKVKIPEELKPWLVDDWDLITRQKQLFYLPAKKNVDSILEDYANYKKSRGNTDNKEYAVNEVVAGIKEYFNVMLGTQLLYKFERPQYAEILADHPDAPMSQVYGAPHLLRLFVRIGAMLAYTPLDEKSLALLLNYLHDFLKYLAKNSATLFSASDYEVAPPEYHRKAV
UniProt Q9UNW1: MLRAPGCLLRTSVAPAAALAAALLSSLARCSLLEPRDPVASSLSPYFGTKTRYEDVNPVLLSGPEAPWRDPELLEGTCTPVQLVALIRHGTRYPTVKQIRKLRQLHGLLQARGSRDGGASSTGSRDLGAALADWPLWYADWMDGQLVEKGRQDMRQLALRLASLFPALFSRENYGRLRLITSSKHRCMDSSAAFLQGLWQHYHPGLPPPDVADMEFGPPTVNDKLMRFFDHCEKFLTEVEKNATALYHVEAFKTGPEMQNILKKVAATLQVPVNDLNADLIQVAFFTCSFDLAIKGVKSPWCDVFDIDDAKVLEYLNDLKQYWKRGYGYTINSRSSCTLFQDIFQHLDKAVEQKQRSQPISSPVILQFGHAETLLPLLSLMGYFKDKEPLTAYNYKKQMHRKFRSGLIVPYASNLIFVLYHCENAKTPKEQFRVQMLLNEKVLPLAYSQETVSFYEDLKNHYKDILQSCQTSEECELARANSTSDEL
UniProt O95396: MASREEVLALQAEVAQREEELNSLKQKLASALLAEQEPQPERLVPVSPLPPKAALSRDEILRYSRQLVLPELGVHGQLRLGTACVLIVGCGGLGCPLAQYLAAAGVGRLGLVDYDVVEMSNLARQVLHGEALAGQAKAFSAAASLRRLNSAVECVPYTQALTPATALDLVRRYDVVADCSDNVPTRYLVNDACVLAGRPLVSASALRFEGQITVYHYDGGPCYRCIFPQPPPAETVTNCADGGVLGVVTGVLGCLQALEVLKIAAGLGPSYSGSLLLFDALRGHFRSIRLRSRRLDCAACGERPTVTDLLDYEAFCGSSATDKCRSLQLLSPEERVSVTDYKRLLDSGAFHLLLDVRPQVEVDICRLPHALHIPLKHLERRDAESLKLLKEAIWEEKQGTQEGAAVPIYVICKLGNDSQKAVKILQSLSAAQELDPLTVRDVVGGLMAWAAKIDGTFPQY
UniProt P34949: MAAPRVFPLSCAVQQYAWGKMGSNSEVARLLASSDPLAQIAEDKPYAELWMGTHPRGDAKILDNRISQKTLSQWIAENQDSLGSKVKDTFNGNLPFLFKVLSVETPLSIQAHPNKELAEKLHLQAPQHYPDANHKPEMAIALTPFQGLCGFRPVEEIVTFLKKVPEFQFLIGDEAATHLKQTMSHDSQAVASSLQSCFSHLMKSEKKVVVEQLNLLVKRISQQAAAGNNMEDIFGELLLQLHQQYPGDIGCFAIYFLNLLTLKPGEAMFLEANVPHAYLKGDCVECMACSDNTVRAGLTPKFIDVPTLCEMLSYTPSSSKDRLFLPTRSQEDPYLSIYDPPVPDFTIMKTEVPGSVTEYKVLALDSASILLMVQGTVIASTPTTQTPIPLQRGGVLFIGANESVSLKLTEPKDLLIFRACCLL
UniProt Q9BV20: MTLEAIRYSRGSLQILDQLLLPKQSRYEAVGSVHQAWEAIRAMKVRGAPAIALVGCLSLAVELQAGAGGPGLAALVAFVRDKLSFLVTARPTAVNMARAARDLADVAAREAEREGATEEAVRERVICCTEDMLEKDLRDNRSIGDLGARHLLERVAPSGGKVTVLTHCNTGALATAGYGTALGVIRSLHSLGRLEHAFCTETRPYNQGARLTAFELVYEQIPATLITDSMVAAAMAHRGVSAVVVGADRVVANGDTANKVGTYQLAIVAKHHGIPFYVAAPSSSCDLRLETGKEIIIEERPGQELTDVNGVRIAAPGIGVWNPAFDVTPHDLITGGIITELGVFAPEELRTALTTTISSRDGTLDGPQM
UniProt Q00013: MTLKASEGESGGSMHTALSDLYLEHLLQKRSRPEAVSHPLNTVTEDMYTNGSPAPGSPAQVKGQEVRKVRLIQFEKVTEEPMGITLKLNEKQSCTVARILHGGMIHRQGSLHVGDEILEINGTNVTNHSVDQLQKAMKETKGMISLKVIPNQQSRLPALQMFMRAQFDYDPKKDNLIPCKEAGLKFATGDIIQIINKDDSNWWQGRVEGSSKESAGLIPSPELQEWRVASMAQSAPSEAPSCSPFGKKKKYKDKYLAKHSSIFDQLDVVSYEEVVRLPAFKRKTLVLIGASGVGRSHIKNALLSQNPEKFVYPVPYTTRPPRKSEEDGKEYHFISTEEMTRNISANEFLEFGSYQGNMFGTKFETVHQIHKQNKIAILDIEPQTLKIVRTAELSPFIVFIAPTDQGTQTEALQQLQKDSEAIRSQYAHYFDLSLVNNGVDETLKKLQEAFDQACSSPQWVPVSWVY
UniProt Q9NZB8: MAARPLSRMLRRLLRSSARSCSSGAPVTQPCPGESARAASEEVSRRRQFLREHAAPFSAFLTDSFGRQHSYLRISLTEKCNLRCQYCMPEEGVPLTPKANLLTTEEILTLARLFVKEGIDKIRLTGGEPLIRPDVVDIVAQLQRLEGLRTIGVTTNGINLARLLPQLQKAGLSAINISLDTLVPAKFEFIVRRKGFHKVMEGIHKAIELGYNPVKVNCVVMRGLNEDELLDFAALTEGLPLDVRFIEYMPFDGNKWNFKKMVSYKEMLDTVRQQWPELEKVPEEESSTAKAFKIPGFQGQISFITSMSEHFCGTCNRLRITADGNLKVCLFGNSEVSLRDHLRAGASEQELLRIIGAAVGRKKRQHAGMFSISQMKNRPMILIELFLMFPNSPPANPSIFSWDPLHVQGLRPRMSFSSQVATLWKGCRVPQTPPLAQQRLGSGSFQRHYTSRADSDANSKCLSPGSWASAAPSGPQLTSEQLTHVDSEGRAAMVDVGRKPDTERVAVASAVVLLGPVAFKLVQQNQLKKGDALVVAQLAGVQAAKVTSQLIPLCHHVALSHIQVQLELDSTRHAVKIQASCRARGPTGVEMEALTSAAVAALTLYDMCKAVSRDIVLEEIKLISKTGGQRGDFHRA
UniProt P25325: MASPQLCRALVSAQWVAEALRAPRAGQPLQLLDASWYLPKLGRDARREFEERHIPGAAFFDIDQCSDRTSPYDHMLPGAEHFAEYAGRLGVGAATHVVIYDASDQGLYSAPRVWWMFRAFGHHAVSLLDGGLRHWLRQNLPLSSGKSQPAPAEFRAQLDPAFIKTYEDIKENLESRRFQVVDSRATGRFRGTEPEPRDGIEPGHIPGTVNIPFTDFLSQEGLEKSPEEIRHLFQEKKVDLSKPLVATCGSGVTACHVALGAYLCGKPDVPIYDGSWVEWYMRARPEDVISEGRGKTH
UniProt Q9NYP9: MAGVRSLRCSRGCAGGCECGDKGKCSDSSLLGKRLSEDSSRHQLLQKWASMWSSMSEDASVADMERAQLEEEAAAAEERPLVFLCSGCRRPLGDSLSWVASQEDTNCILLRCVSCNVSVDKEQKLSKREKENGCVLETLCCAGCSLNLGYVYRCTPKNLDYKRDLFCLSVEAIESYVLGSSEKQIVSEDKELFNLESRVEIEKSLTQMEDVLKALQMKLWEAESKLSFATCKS
UniProt Q567V2: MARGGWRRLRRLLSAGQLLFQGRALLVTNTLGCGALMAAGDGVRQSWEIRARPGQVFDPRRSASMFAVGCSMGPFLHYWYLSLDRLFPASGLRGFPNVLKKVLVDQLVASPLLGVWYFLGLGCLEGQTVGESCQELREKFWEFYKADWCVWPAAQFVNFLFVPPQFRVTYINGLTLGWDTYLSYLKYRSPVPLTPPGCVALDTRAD
UniProt P14174: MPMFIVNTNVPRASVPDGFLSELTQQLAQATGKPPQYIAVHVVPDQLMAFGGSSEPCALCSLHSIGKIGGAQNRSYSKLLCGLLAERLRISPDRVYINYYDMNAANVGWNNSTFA

Experiments:
Assay in all cases: log2 fold change, soluble protein after heating vs DMSO (PISA); higher = thermal stabilisation; K562 cells, 10 uM, 30 min; active = over 0.2 and 3.5 SD of the protein, either way, in both replicates (recomputed)
[1] = compound: COC1=CC=C(C=C1)CN2C=CC3=C2C=C(C=C3)C(=O)NO
Method in brief: (§1)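 Aliquots of K562 cells (2×10^6 cells/mL) treated with 10 μM compound for 30 min were heated for 3 min over 48°C-58°C. After pooling and extraction in PBS with 0.5% NP-40 at 4°C, soluble protein from a 21,000xg, 90 min spin was quantified by TMTpro 16plex LC-MS/MS with channel sums equalised. Thermal stability is expressed against control samples, from duplicates, as a log2 fold change.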

filanesib = compound: CON(C)C(=O)N1N=C(c2cc(F)ccc2F)S[C@@]1(CCCN)c1ccccc1 [filanesib]
Method in brief: as §1

zotarolimus = compound: CO[C@H]1C[C@@H]2CC[C@@H](C)[C@@](O)(O2)C(=O)C(=O)N2CCCC[C@H]2C(=O)O[C@H]([C@H](C)C[C@@H]2CC[C@H](n3cnnn3)[C@H](OC)C2)CC(=O)[C@H](C)/C=C(\C)[C@@H](O)[C@@H](OC)C(=O)[C@H](C)C[C@H](C)/C=C/C=C/C=C/1C [zotarolimus]
Method in brief: as §1

idasanutlin = compound: COc1cc(C(=O)O)ccc1NC(=O)[C@@H]1N[C@@H](CC(C)(C)C)[C@](C#N)(c2ccc(Cl)cc2F)[C@H]1c1cccc(Cl)c1F [idasanutlin]
Method in brief: as §1

alisertib = compound: COc1cc(Nc2ncc3c(n2)-c2ccc(Cl)cc2C(c2c(F)cccc2OC)=NC3)ccc1C(=O)O [alisertib]
Method in brief: as §1

[2] = compound: COc1cc2nc(-c3cc(F)ccc3O)nc(N[C@@H]3CNC[C@H]3C(C)(C)O)c2cc1OC
Method in brief: as §1

gefitinib = compound: COc1cc2ncnc(Nc3ccc(F)c(Cl)c3)c2cc1OCCCN1CCOCC1 [gefitinib]
Method in brief: as §1

[3] = compound: COc1cccc2cc(-c3nc([C@H]4CC[C@H](C(=O)O)CC4)n4ncnc(N)c34)[nH]c12
Method in brief: as §1

lapatinib = compound: CS(=O)(=O)CCNCc1ccc(-c2ccc3ncnc(Nc4ccc(OCc5cccc(F)c5)c(Cl)c4)c3c2)o1 [lapatinib]
Method in brief: as §1

pictilisib = compound: CS(=O)(=O)N1CCN(Cc2cc3nc(-c4cccc5[nH]ncc45)nc(N4CCOCC4)c3s2)CC1 [pictilisib]
Method in brief: as §1

Target	log2 fold change [1]	log2 fold change (filanesib)	log2 fold change (zotarolimus)	log2 fold change (idasanutlin)	log2 fold change (alisertib)	log2 fold change [2]	log2 fold change (gefitinib)	log2 fold change [3]	log2 fold change (lapatinib)	log2 fold change (pictilisib)
MRPL50 (UniProt Q8N5N7)	inactive: -0.03	inactive: 0.078	inactive: 0.202	inactive: -0.122	inactive: -0.078	active: -0.719	inactive: 0.004	inactive: -0.022	inactive: 0.42	inactive: -0.067
MRPL30 isoform 2 (UniProt Q8TCC3)	inactive: 0.089	inactive: 0.248	inactive: 0.14	inactive: -0.011	inactive: -0.056	inactive: -0.071	inactive: -0.051	inactive: -0.062	inactive: 0.174	inactive: -0.038
MRPL27 (UniProt Q9P0M9)	inactive: -0.024	inactive: 0.138	inactive: 0.026	inactive: -0.043	inactive: -0.097	inactive: -0.023	inactive: -0.008	inactive: -0.174	inactive: 0.235	inactive: -0.087
MORF4L2 (UniProt Q15014)	inactive: -0.149	inactive: 0.146	inactive: -0.044	inactive: 0.045	inactive: -0.066	inactive: -0.085	inactive: -0.048	inactive: -0.074	inactive: 0.03	inactive: -0.063
MOB3A (UniProt Q96BX8)	inactive: 0.007	inactive: -0.299	inactive: 0.059	inactive: -0.195	inactive: 0.074	inactive: -0.006	inactive: -0.025	inactive: 0.062	inactive: 0.04	inactive: 0.121
MIEF1 (UniProt Q9NQG6)	inactive: 0.053	inactive: -0.18	inactive: 0.006	inactive: -0.066	inactive: -0.033	active: -0.382	inactive: 0.051	inactive: 0.001	inactive: 0.004	inactive: -0.027
MRPL14 (UniProt Q6P1L8)	inactive: 0.138	inactive: -0.036	inactive: 0.033	inactive: -0.09	inactive: -0.094	inactive: -0.034	inactive: 0.009	inactive: 0.001	inactive: 0.034	inactive: -0.158
MORF4L1 isoform 2 (UniProt Q9UBU8)	inactive: 0.017	inactive: 0.032	inactive: 0.007	inactive: 0.002	inactive: -0.053	inactive: -0.069	inactive: -0.032	inactive: -0.014	inactive: 0.017	inactive: -0.057
MINPP1 (UniProt Q9UNW1)	inactive: -0.049	inactive: -0.001	inactive: -0.043	inactive: -0.001	inactive: -0.106	inactive: -0.056	inactive: -0.024	inactive: 0.004	inactive: 0.072	inactive: -0.082
MOCS3 (UniProt O95396)	inactive: 0.023	inactive: -0.005	inactive: 0.032	inactive: -0.039	inactive: 0.151	inactive: 0.134	inactive: 0.041	inactive: -0.092	inactive: -0.006	inactive: 0.114
MPI (UniProt P34949)	inactive: -0.157	inactive: -0.018	inactive: -0.049	inactive: 0.002	inactive: -0.008	inactive: 0.045	inactive: -0.018	inactive: 0.072	inactive: -0.04	inactive: -0.147
MRPL28 (UniProt Q13084)	inactive: -0.038	inactive: 0.159	inactive: 0.158	inactive: -0.098	inactive: -0.023	inactive: -0.018	inactive: -0.047	inactive: -0.098	inactive: 0.108	inactive: -0.048
MRI1 (UniProt Q9BV20)	inactive: -0.014	inactive: -0.072	inactive: 0.016	inactive: -0.026	inactive: -0.073	inactive: 0.042	inactive: 0.012	inactive: -0.02	inactive: -0.001	inactive: 0.068
MRPL22 (UniProt Q9NWU5)	inactive: -0.077	inactive: 0.209	inactive: 0.122	inactive: -0.149	inactive: 0.099	inactive: 0.051	inactive: 0.007	inactive: -0.103	inactive: 0.194	inactive: -0.113
MPP1 (UniProt Q00013)	inactive: 0.024	inactive: -0.041	inactive: -0.027	inactive: 0.069	inactive: 0.032	inactive: 0.016	inactive: 0.114	inactive: -0.074	inactive: 0.032	inactive: 0.096
MRPL42 (UniProt Q9Y6G3)	inactive: 0.023	inactive: 0.198	inactive: -0.075	inactive: 0.012	inactive: -0.008	inactive: -0.059	inactive: -0.063	inactive: 0.075	inactive: -0.085	inactive: -0.182
MRPL23 (UniProt Q16540)	inactive: -0.013	inactive: 0.193	inactive: 0.095	inactive: -0.055	inactive: -0.104	inactive: 0.063	inactive: -0.035	inactive: -0.063	inactive: 0.154	inactive: -0.186
MRPL35 (UniProt Q9NZE8)	inactive: -0.09	inactive: 0.234	inactive: 0.082	inactive: 0.035	inactive: -0.217	inactive: -0.084	inactive: -0.076	inactive: -0.019	inactive: 0.07	inactive: -0.265
MRPL24 (UniProt Q96A35)	inactive: -0.016	inactive: 0.292	inactive: 0.102	inactive: -0.077	inactive: -0.028	inactive: 0.033	inactive: -0.159	inactive: -0.161	inactive: 0.144	inactive: -0.156
MRPL13 (UniProt Q9BYD1)	inactive: -0.186	inactive: 0.002	inactive: 0.078	inactive: -0.029	inactive: -0.206	inactive: 0	inactive: -0.168	inactive: 0.017	inactive: 0.102	inactive: -0.073
MOCS1 isoform 8 (UniProt Q9NZB8)	inactive: -0.098	inactive: -0.009	inactive: 0.027	inactive: -0.005	inactive: -0.054	inactive: -0.014	inactive: 0.087	inactive: -0.001	inactive: 0.047	inactive: 0.117
MPST isoform 2 (UniProt P25325)	inactive: -0.021	inactive: 0.101	inactive: 0.025	inactive: -0.042	inactive: 0.057	inactive: -0.009	inactive: 0.036	inactive: -0.037	inactive: -0.005	inactive: 0.119
MIS18A (UniProt Q9NYP9)	inactive: 0.064	inactive: -0.002	inactive: 0.006	inactive: 0.005	inactive: -0.036	inactive: -0.037	inactive: 0.035	inactive: -0.028	inactive: 0.042	inactive: 0.023
MPV17L2 (UniProt Q567V2)	inactive: 0.054	inactive: -0.004	inactive: -0.067	inactive: -0.088	inactive: 0.02	inactive: 0.051	inactive: -0.005	inactive: -0.028	inactive: -0.027	inactive: 0.142
MRPL39 (UniProt Q9NYK5)	inactive: -0.028	inactive: 0.094	inactive: 0.138	inactive: -0.035	inactive: -0.003	inactive: -0.132	inactive: -0.008	inactive: -0.039	inactive: 0.068	inactive: -0.067
MRPL38 (UniProt Q96DV4)	inactive: -0.097	inactive: 0.205	inactive: 0.101	inactive: -0.008	inactive: -0.085	inactive: 0.026	inactive: -0.075	inactive: -0.095	inactive: 0.137	inactive: -0.086
MIF (UniProt P14174)	inactive: 0.027	inactive: 0.024	inactive: 0.029	inactive: 0.043	inactive: 0.043	inactive: -0.082	inactive: 0.082	inactive: -0.043	inactive: -0.034	inactive: -0.141
MRPL3 (UniProt P09001)	inactive: -0.034	inactive: 0.222	inactive: 0.087	inactive: -0.152	inactive: 0.012	inactive: -0.02	inactive: -0.066	inactive: -0.02	inactive: 0.139	inactive: -0.14
MRPL43 isoform 4 (UniProt Q8N983)	inactive: -0.057	inactive: 0.09	inactive: 0.092	inactive: -0.01	inactive: -0.174	inactive: -0.086	inactive: -0.002	inactive: -0.027	inactive: 0.165	inactive: -0.13

Rewritten with bars between the fields: part of the list above.
Target | log2 fold change [1] | log2 fold change (filanesib) | log2 fold change (zotarolimus) | log2 fold change (idasanutlin) | log2 fold change (alisertib) | log2 fold change [2] | log2 fold change (gefitinib) | log2 fold change [3] | log2 fold change (lapatinib) | log2 fold change (pictilisib)
MRPL13 (UniProt Q9BYD1) | inactive: -0.186 | inactive: 0.002 | inactive: 0.078 | inactive: -0.029 | inactive: -0.206 | inactive: 0 | inactive: -0.168 | inactive: 0.017 | inactive: 0.102 | inactive: -0.073
MOCS1 isoform 8 (UniProt Q9NZB8) | inactive: -0.098 | inactive: -0.009 | inactive: 0.027 | inactive: -0.005 | inactive: -0.054 | inactive: -0.014 | inactive: 0.087 | inactive: -0.001 | inactive: 0.047 | inactive: 0.117
